Some of the results follow. Further columns of the screen follow, without active or inactive calls. The list favours compounds with an active or inconclusive main result. Potencies come from curve fits of mixed quality, noted in brackets.
Assay: qHTS Assay for Lipid Storage Modulators in Drosophila S3 Cells;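 as to cell number change: cells counted by Cell Tracker Red CMTPX staining in the red channel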
Settings: BODIPY lipid droplet fluorescence, 18-24 h; for cell number change: measured here: cell count max response, cells fed with added oleic acid
Procedure, shortened: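 Drosophila S3 cells got compounds at several concentrations plus oleic acid (400 uM solution). Laser-scanning cytometry with 488 nm excitation read lipid droplets at 500-530 nm and cells at 575-640 nm. Percent activity was relative to 20 uM Triacsin C.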

[1] = measured here: cell number channel AC50, cells fed with added oleic acid
[2] = measured here: lipid fluorescence (Fed channel) AC50, cells fed with added oleic acid

SMILES	cell number change	AC50 [1]	AC50 [2]
CCN1/C(=C/c2ccc3ccccc3[n+]2CC)C=Cc2ccccc21	111%	2.59 µM [rising, full curve]	1.16 µM [falling, full curve]
COc1ccc(C(=O)N2CCN(C(=O)Cc3ccccc3)CC2)cc1OC	29.9%		4.11 µM [rising, single point]
O=C(NCc1ccc2c(c1)OCO2)C1CC(=O)N(CCc2ccc(Cl)cc2)C1 (stereo unspecified)	6.52%		
O=C(Cc1ccc2c(c1)OCCO2)N/N=C/c1ccco1	-7.27%		29.1 µM [rising, single point]
O=S(=O)(c1ccccc1)c1nc(-c2cccs2)oc1NCCCn1ccnc1	7.68%	1.46 µM [rising, full curve]	1.3 µM [rising, partial curve]
Cc1ccccc1CSCC(=O)Nc1ccccc1Br	-21%		29.1 µM [falling, single point]
COc1ccc(F)cc1S(=O)(=O)NCc1cc(=O)n(C)c(=O)n1C	9.14%		29.1 µM [rising, single point]
Cc1ccc(C)c(OCC(O)CN2C(C)CCCC2C)c1 (stereo unspecified)	-52.3%	29.1 µM [falling, single point]	23.1 µM [falling, single point]
CCN1CCN(c2nc3c(C)cccn3c(=O)c2/C=C(\C#N)S(=O)(=O)c2ccc(C)cc2)CC1		0.116 µM [rising, full curve, poor fit]	
COc1ccc(Oc2coc3c(CN(C)C)c(O)ccc3c2=O)cc1	22.4%		29.1 µM [rising, single point]
O=C(Nc1ccc(Cc2ccc(NC(=O)C3CC3)cc2)cc1)C1CC1	-4.74%		29.1 µM [falling, single point]
COc1ccccc1CNC(=O)COC(=O)C1=COCCO1	12.4%		4.61 µM [falling, single point]
COc1ccc(N2CCN(C(=O)CSc3nnnn3C3CC3)CC2)cc1	4.28%		29.1 µM [rising, single point]
O=C(CNc1cccc(S(=O)(=O)N2CCOCC2)c1)Nc1cccc(Br)c1			6.51 µM [rising, single point]
COc1ccc(C2CC2/C(C)=N/OC(=O)c2ccc(F)cc2)cc1 (stereo unspecified)	0.342%		
Clc1ccc(SCc2cn3ccccc3n2)cc1	18.9%		
COc1ccc(CCNC(=O)c2cc(C(=O)c3cc(C)ccc3O)cn(CCc3ccc(OC)cc3)c2=O)cc1	-78.8%	11.6 µM [falling, partial curve, poor fit]	32.6 µM [falling, single point]
CCNc1cc(S(=O)(=O)C(F)(F)F)ccc1N	-0.57%		29.1 µM [falling, partial curve, poor fit]
COc1ccc(/C=N/NC(=O)c2[nH]c3ccc(Br)cc3c2-c2ccccc2)c(C(=O)O)c1OC	4.8%		29.1 µM [rising, single point]
CCCCCCCCCC[N+](C)(C)CC/C=C1/c2ccccc2Sc2ccc(Cl)cc21	-63%	11.6 µM [falling, partial curve]	13 µM [falling, partial curve]

SMILES	cell number change	AC50 [1]	AC50 [2]
Cc1[nH]nc2c1C(c1ccc(-c3ccccc3C#N)o1)C(C#N)=C(N)O2 (stereo unspecified)	-25.3%		0.103 µM [rising, full curve, poor fit]
Cc1cccc(-n2c(=S)[nH]c3c(oc4ccccc43)c2=O)c1	1.02%		
CCOC(=O)C1=C(O)/C(=C\c2ccc(CNC(=O)C(=O)Nc3ccccc3)o2)N=C1C	44.6%	11.6 µM [rising, partial curve]	
CCn1nnnc1-c1ccc(OC)c(S(=O)(=O)Nc2ccc(C(=O)OC)cc2)c1	3.37%		20.6 µM [rising, partial curve]
O=S(=O)(c1ccc(Cl)cc1)c1cc(O)ccc1O	-32%	0.00461 µM [falling, full curve, poor fit]	
Cc1cc(C)c(S(=O)(=O)Nc2ccncc2)cc1C	-24.7%		
CCN1CCN(C(=O)CCCn2c(C)c3cnn(-c4ccccc4)c(=O)c3c2C)CC1	-2.48%		29.1 µM [rising, single point]
CCc1cc2c(COC(=O)c3c(C)noc3C)cc(=O)oc2cc1O	-33.3%	25.9 µM [falling, single point]	14.6 µM [falling, single point]
CCCC(=O)Nc1ccc(NC(=O)C23CC4CC(CC(C4)C2)C3)cn1	-3.04%		0.517 µM [falling, full curve]
Cn1c(=O)c2c(nc(Cl)n2CCOc2ccccc2)n(C)c1=O	-54%	29.1 µM [falling, single point]	29.1 µM [falling, single point]
Cc1cccn2c(=O)c(C=O)c(N3CCN(c4ccccc4)CC3)nc12	-15.4%		6.51 µM [falling, partial curve, poor fit]
COc1ccccc1C(=O)Nc1ccc2c(c1)nc(CN1CCN(C(C)=O)CC1)n2C		6.51 µM [rising, single point]	
N#Cc1nc(-c2cccs2)oc1N1CCN(c2ccccc2)CC1		4.61 µM [rising, partial curve, poor fit]	
O=C(NCC1CCCO1)/C(=C\c1ccccc1F)NC(=O)c1ccccc1 (stereo unspecified)	3.81%		29.1 µM [falling, single point]
N=C(N)N=Nc1c(O)[nH]c2ccc(Br)cc12	-2.3%		
CCc1ccc(-c2cc(C(=O)NCc3ccccn3)c3ccccc3n2)cc1	-6.24%		2.59 µM [rising, full curve, poor fit]
CCn1c2ccccc2c2cc(CNCCCN3CCOCC3)ccc21	3.31%		29.1 µM [rising, single point]
Fc1ccc(CSc2nsc(SCc3ccc(F)cc3)n2)cc1	17.4%		29.1 µM [rising, single point]
CC(C)Oc1ccccc1C1Nc2ccccc2C(=O)N1c1ccc2c(c1)OCCO2 (stereo unspecified)	-10.3%	1.64 µM [rising, partial curve]	
Nc1c(Br)c(=O)[nH]c(=O)n1-c1ccccc1	26.1%	1.84 µM [rising, full curve, poor fit]	

SMILES	cell number change	AC50 [1]	AC50 [2]
COc1ccc(/C=N/NC(=S)Nc2ccccc2)cc1COc1cccc(C)c1C	0.486%		0.00461 µM [rising, full curve, poor fit]
Cc1ccccc1C(=O)N=c1ccn(-c2nc3ccccc3nc2NS(=O)(=O)c2ccc(F)cc2)cc1	15.3%		0.731 µM [rising, single point]
O=C(O)c1ccc2c(c1)S(=O)(=O)N=C1CCCCCN12			0.116 µM [falling, full curve, poor fit]
CNC(=O)C1CCN(S(=O)(=O)c2c(C)noc2/C=C/N(C)C)CC1	33.2%	7.31 µM [rising, partial curve, poor fit]	0.58 µM [falling, single point]
CCN(c1ccccc1)S(=O)(=O)c1ccc(Oc2ccc(-n3ccnc3)cc2)nc1	28.5%		4.61 µM [rising, full curve, poor fit]
CCC(C)NC(=O)c1cc(-c2ccccc2O)on1 (stereo unspecified)	30.5%	23.1 µM [rising, single point]	29.1 µM [rising, single point]
COc1ccccc1Nc1nc(NCCO)c2ccccc2n1	62.8%	1.64 µM [rising, full curve]	5.17 µM [rising, single point]
CCOC(=O)c1ccc(NC(=S)N(CCN(C)C)C(C)c2ccncc2)cc1 (stereo unspecified)	16.3%		
COc1ccc(S(=O)(=O)N2CCCCCC2)cc1NC(=O)Cc1n[nH]c(=O)c2ccccc12		6.51 µM [rising, single point]	
COC(=O)c1cc(NC(=O)CN(c2ccc3c(c2)OCO3)S(C)(=O)=O)ccc1Cl	40%	25.9 µM [rising, single point]	2.06 µM [rising, partial curve]
O=C(NC12CC3CC(CC(C3)C1)C2)N(Cc1ccccc1)Cc1ccncc1	126%	23.1 µM [rising, partial curve, poor fit]	18.4 µM [rising, partial curve]
CNC(=O)COC(=O)c1cc2c(C)nn(-c3ccc(F)cc3)c2s1	18.1%		0.731 µM [rising, full curve]
CC(C)n1c(/N=C/c2c[nH]c3ccccc23)nc2ccccc21	-36.4%	0.058 µM [falling, full curve, poor fit]	29.1 µM [falling, partial curve, poor fit]
CCOC(=O)c1cc2c(ccn2C)n1CC(=O)N1C(C)CCCC1C (stereo unspecified)	-62.1%	6.51 µM [falling, full curve]	6.51 µM [falling, full curve]
COc1ccc(CN2CCn3ncc(C(=O)Nc4cccc(C)c4)c3C2=O)cc1	1.98%		0.731 µM [rising, full curve]
CCOc1ccc(CCNC(=O)c2nnn(CC(=O)Nc3ccc(OC)c(OC)c3)c2N)cc1OCC	20.2%		
CC(NC(=O)c1cc(F)c(F)cc1Cl)C1CC2CCC1C2 (stereo unspecified)	3.15%		11.6 µM [falling, single point]
Cc1oc(-c2cccs2)nc1CS(=O)CC(=O)NC1CCCCCC1 (stereo unspecified)	-4.17%		0.00461 µM [rising, full curve, poor fit]

Some entries already given, limited to cell number change:
SMILES	cell number change
COc1ccc(/C=N/NC(=O)c2[nH]c3ccc(Br)cc3c2-c2ccccc2)c(C(=O)O)c1OC	4.8%
CCCCCCCCCC[N+](C)(C)CC/C=C1/c2ccccc2Sc2ccc(Cl)cc21	-63%
Cc1[nH]nc2c1C(c1ccc(-c3ccccc3C#N)o1)C(C#N)=C(N)O2 (stereo unspecified)	-25.3%
